Assay: C-terminal heterogeneity of soluble rHuPH20 (Asp-N digestion, C-terminal sequencing)
[1] = Lot HUA0505MA (3D35M cells, 100 L bioreactor)
[2] = Lot HUB0701EB (2B2 cells, 300 L bioreactor)

D28a (DAFLKPPMETEEPQIFY; soluble rHuPH20 1-447; listed as Homo sapiens)
Abundance of C-terminal fragment [1]: 0.2%
Abundance of C-terminal fragment [2]: 1.9%

D28b (DAFLKPPMETEEPQIF; soluble rHuPH20 1-447; listed as Homo sapiens)
Abundance of C-terminal fragment [1]: 18.4%
Abundance of C-terminal fragment [2]: 46.7%

From patent publication US20090311237A1, “Combination therapy using a soluble hyaluronidase and a bisphosphonate” (priority 2008, published 2009)
